Results are given in words; binding and its absence hold for the method and conditions named. In cells and extracts the contact can be indirect. Some results given as binding are weak or reduced against the parent protein; the word gives no strength.
Key:
[1] = target: Scaffold attachment factor A (SAF-A) (mouse (endogenous in R1 mES cells)) (UniProt Q8VEK3); test: co-IP; total mES cell extract; cells treated with 5 mM DTBP before lysis (50 mM Tris-HCl pH 7.5, 0.15 M NaCl, 1% Triton X-100, 5 mM EDTA); anti-SAF-A with Protein A/G PLUS-Agarose overnight at +4°C; Western blot with anti-SAF-A and anti-BRG1; extract untreated or treated with RNase A (0.1 µg/µl, 30 min)
[2] = target: Scaffold attachment factor A (SAF-A) (mouse (endogenous in R1 mES cells)) (UniProt Q8VEK3); test: proximity ligation; Duolink in situ PLA on fixed, permeabilised cells, confocal microscopy; pluripotent mES cells (+LIF), RNase A treated cells, and cells induced to differentiate (-LIF or +RA)

The chains behind the UniProt entries cited, without tags or fusion partners.
UniProt Q8VEK3: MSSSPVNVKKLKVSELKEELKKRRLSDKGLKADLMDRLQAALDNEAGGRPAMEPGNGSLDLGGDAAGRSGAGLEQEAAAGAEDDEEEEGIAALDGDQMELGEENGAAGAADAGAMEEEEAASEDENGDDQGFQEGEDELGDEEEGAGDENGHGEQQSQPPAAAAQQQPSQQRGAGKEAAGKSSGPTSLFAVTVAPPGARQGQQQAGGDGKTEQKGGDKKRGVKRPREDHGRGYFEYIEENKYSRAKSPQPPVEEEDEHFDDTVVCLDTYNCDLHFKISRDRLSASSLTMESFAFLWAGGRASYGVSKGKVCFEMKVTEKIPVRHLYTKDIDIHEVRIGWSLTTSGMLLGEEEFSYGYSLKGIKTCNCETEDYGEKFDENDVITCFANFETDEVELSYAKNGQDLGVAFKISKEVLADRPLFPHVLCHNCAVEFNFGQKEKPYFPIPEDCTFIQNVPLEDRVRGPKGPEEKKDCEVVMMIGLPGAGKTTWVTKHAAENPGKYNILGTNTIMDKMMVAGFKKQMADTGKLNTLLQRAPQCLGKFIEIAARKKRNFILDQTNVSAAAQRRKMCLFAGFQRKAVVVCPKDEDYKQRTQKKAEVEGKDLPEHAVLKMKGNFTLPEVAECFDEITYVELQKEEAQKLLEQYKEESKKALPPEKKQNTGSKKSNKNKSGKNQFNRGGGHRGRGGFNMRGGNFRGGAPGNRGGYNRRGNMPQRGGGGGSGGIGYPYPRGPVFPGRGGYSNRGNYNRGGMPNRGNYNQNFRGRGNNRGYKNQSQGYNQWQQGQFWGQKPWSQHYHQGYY
UniProt Q3TKT4: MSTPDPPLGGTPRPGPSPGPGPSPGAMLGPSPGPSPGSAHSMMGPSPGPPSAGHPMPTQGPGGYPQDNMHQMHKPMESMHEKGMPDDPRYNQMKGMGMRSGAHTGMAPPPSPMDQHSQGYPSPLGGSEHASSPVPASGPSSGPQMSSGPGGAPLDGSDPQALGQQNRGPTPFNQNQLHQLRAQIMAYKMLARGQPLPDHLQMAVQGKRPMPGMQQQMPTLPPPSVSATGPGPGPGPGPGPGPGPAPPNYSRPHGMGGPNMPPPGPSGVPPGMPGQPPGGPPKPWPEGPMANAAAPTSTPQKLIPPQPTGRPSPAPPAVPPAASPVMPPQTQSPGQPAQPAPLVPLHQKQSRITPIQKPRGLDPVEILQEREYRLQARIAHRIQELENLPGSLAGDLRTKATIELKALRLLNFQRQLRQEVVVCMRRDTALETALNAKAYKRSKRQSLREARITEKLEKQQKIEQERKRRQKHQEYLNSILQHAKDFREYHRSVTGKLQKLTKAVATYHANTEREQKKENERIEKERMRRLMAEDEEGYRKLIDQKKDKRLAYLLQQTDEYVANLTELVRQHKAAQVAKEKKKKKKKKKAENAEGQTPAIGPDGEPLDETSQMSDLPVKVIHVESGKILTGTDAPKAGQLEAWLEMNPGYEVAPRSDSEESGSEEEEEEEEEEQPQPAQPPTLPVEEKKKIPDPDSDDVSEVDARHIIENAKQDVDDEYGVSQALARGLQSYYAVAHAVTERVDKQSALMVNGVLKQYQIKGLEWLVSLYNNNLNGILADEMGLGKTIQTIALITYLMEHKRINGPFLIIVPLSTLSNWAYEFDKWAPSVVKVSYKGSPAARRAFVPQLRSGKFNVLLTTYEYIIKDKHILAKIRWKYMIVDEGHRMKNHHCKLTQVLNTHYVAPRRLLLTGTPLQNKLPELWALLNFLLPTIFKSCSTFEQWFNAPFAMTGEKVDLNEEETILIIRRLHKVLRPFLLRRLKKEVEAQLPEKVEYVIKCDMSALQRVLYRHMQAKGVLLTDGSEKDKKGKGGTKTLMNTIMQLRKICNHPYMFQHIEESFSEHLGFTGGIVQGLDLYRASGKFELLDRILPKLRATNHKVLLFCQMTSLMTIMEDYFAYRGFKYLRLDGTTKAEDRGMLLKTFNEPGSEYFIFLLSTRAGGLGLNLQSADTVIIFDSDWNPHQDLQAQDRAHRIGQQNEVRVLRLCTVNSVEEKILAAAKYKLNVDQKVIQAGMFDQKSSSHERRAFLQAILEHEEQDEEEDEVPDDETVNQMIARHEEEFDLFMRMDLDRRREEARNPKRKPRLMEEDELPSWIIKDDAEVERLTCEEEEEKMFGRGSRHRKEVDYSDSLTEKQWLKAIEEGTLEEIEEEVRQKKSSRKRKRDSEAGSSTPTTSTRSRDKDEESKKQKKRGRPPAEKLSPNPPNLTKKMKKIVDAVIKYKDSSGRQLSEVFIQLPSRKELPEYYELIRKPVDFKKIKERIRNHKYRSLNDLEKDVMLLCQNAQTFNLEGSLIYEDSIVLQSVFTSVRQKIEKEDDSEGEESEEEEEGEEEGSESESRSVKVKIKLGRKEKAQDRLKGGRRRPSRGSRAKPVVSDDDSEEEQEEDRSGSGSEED

- binding [1]: binds
- binding [2]: binds
Substance: Brahma Related Gene 1 (BRG1) (from UniProt Q3TKT4 1-1613)

Reference: publication PMC3232189
